No constants are given. Whether binding was seen depends on the method and setting. Binding seen in cells or lysates may run through a third protein. A result given as binding can be weak or reduced; the word gives no strength.
Biological target: T1, AtATG8A (recombinant, pull-down) (A. thaliana) (UniProt Q8LEM4)
T1 sequence: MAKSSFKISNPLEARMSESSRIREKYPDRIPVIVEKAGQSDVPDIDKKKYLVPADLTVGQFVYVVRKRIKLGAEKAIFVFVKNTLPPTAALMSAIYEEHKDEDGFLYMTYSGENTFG
Assay: pull-down

AtCESAR2 (recombinant) (A. thaliana) was tested, and the binding was “binds”.
With AtCESAR2^4A (A. thaliana) the binding was “no binding”.
